At least one structure is not confirmed: it was looked up by name or label, or the drawing left a doubt.
Tested on: dopamine release from the rat striatum
Assay: In vivo dopamine release from the striatum (microdialysis)
Conditions: perfusion, 1 pmol/µl; SD rat
Method: The release of dopamine from the rat striatum was measured by the in vivo microdialysis method. A microdialysis probe fitted with a microinjection cannula was inserted into the striatum of an 8∼10·week·old male SD rat and the striatum was perfused with Ringer's solution at a rate of 2 µl/min.
Beginning 2 hours after the start of perfusion, the perfusate was recovered at a 20-minute interval and the dopamine in each perfusate was measured with a high-performance liquid chromatography-electrochemical detector. The drug was perfused into the striatum through the microdialysis probe or microinjected into the striatum via the microinjection cannula. The effect of the drug on the basal dopamine release was evaluated by comparing the values before and after stimulation and a statistical analysis was made by Dunnett's test. Then, to evaluate the effect of Compound 1A on KCl·stimulated dopamine release, the amount of dopamine released in the presence of Compound 1A (10 µM) (ipsilateral striatum) was compared with the amount of KCl-stimulated dopamine release in the absence of Compound 1A (contralateral striatum) and the difference was statistically analyzed by paired t-test.
Therefore, with a microdialysis probe inserted bilaterally, one of the striatum was perfused with Ringer's solution (control side) and the other striatum with Compound 1A (10 µM). […]

COCCOC(=O)C1=C(C)NC(C)=C(C(=O)OC(C)C)C1c1cccc([N+](=O)[O-])c1 (stereo not shown) [nimodipine]
effect on dopamine release: not influenced
